PubChem BioAssay AID588497 (NMMLSC, 2011)
The campaign covered roughly 360,000 compounds. About 780 (0.22%) were called active. The shares of active, inactive and inconclusive entries below differ from those in the screen. No stated cut-off is given here; in the data, active means inhibition above about 35% (passing the limit was not always enough); inconclusive means no clear call, values can overlap the other calls.

Each compound was assayed on Botulinum neurotoxin type F light chain protease (Clostridium botulinum) (assay: BoNT/F light chain protease inhibitors, primary screen, biochemical, flow cytometry, MLPCN library (AID 588497; further: plate controls were buffer without enzyme for full effect and enzyme alone for no effect)). Details: Multiplex microsphere protease cleavage assay, at 10 µM, active compounds read high.

Compound | inhibition
O=C(NN1C(=O)C2CCCCC2C1=O)c1ccco1 (configuration not stated) | inconclusive: 37.6%
Cc1cccc(C(C)C)c1NC(=O)Cc1ccc(S(=O)(=O)N2CCOCC2)s1 | inconclusive: -178%
COC(=O)c1c(NC(=O)c2ccccc2F)sc2c1C(C(=O)OC)CC2 (configuration not stated) | inconclusive: 21%
COc1ccc(N2CCC(N3CCN(C)C(CCO)C3)CC2)cc1 (configuration not stated) | inconclusive: 10.4%
CC(C)(C)n1cc(C(=O)c2ccccc2)cc1-c1ccccc1 | inconclusive: -19%
CCCCc1c(O)nc(SCC(=O)c2ccccc2)n(-c2ccccc2C)c1=O | inconclusive: -10%
O=C(O)c1[nH]c2ccccc2c1C(c1ccccc1)c1c(C(=O)O)[nH]c2ccccc12 | inconclusive: -32.6%
O=C(Oc1ccc(N(Cc2cccs2)C2=NS(=O)(=O)c3ccccc32)cc1)c1ccco1 | inconclusive: 7.1%
Cc1ccc(C(=O)NCc2ccc3c(c2)OCO3)cc1 | inconclusive: -13%
Cc1nc2ccccc2n1Cc1ccc(Br)cc1 | inconclusive: 5.8%
CC(=O)C(=Cc1ccc(O)cc1)C(C)=O | inconclusive: 8.9%
CCN(CC)C(=O)c1ccc(-c2nnc(Nc3ccc(C(=O)NC)cc3)c3ccccc23)cc1 | inconclusive: 3.9%
CC(=O)Nc1c(Cl)cc(Cl)c2c1Cc1cc(Cl)ccc1-2 | inactive: 10.7%
CS(=O)(=O)N1CCc2cc(C(=O)Nc3ccc(Cl)cc3)ccc21 | inconclusive: 0.8%
Cn1c(/N=C/c2ccccc2[N+](=O)[O-])nc2ccccc21 | inconclusive: 9%
COc1cccc(NS(=O)(=O)c2ccc(NC(C)=O)cc2)c1 | inactive: 0.9%
Cc1ccc(N(CC(=O)Nc2ccc(-c3nc4ccc(C)cc4s3)cc2)S(C)(=O)=O)cc1 | inactive: -6.3%
Cc1ccnc(NS(=O)(=O)c2ccc3ccccc3c2)n1 | inconclusive: 26.4%
COc1ccccc1NC(=O)c1ccc(COc2ccccc2OC)cc1 | inconclusive: -4.5%
O=C(NC1CCCC1)c1cc(-c2ccccc2)nc2ccccc12 | inconclusive: 0.6%
O=C(COc1ccccc1[N+](=O)[O-])NCCCN1CCCC1=O | inactive: 0.3%
Cc1ccc(CNS(=O)(=O)c2ccccc2[N+](=O)[O-])cc1 | inactive: -2.4%
CC(=O)c1sc(C(C)(C)C)cc1NC(=O)c1ccccc1C(=O)O | inconclusive: -70.3%

Compound | inhibition
C=CCn1c(O)c(/C=N/N2CCCCC2)c(=O)[nH]c1=O | inconclusive: -3.5%
COc1cccc(-c2cc(CNC(=O)[C@H]3O[C@@H](n4cnc5c(N)ncnc54)[C@H](O)[C@@H]3O)no2)c1 | inactive: -1.4%
O=C(CSc1nnc2c(Cl)cc(Cl)cn12)NC1CCS(=O)(=O)C1 (configuration not stated) | inactive: 2.1%
FC(F)(F)c1ccc(-c2csc(-c3ccno3)n2)cc1 | inconclusive: -30.6%
CCCOc1ccc(C(=O)NC(=S)NNC(=O)c2c(-c3ccccc3)noc2C)cc1 | inconclusive: 13.1%
COc1ccccc1CNS(=O)(=O)c1c(C)noc1C | inconclusive: -16.1%
Cc1cc(=O)c2cc(C(=O)c3ccccc3)ccc2[nH]1 | inconclusive: 28.4%
NC(=O)CSc1nnc2n(-c3ccccc3)c(=O)c3c4c(sc3n12)CCCCC4 | inconclusive: 0.9%
O=C(N/N=C/c1cn(Cc2ccccc2)c2ccccc12)c1cc(O)cc(O)c1 | inconclusive: 2.6%
CCOC(=O)c1ccc(N2C(=O)CC(C)(CC)CC2=O)cc1 | inconclusive: 17.9%
CCOC(=O)C(CC(=O)O)N1CCCCC1 (configuration not stated) | inconclusive: 7%
CC(=O)N(CCC(Cc1ccccc1)c1ccc2c(c1)OCO2)Cc1ccc(Cl)cc1 (configuration not stated) | inconclusive: -7%
O=C(Nc1ccncc1)c1cc2ccccc2cc1O | inactive: -7.2%
CC(=O)c1cccc(NC(=O)CN2C(=O)NC(C)(c3ccc4c(c3)OCCCO4)C2=O)c1 (configuration not stated) | inactive: -1.7%
COc1cccc(NC(=O)COC(=O)c2c3c(nc4ccccc24)CCC(C)C3)c1 (configuration not stated) | inactive: 0.5%
O=C(O)C1CC1C(=O)Nc1nc2c(Cl)cccc2s1 (configuration not stated) | inconclusive: -4%
CCOc1ccc(/C=N/NC(=S)NC2CC3C=CC2C3)cc1 (configuration not stated) | inconclusive: -14.4%
C=CCn1c(SCC(=O)c2cc(C)n(Cc3cccs3)c2C)nnc1-c1ccncc1 | inactive: 0.3%
CCc1ccc[n+](-c2nc([O-])sc2C=O)c1 | inconclusive: 19.1%
COc1ccc(/C=N/NC(=O)c2ccc(C)nc2)cc1O | inconclusive: 28.9%
COc1ccc(N2C(=O)CC(NNC(=O)c3cccnc3)C2=O)cc1 (configuration not stated) | inconclusive: 48%
CCOC(=O)/C(=N/Nc1ccccc1OC)N1CCCc2ccccc21 | inconclusive: -0.6%
Clc1ccc(-c2cnc3n2CCC3)cc1 | inactive: 0.9%

An excerpt of these results, with each value named.
COc1cccc(-c2cc(CNC(=O)[C@H]3O[C@@H](n4cnc5c(N)ncnc54)[C@H](O)[C@@H]3O)no2)c1
  inhibition: inactive: -1.4%
O=C(CSc1nnc2c(Cl)cc(Cl)cn12)NC1CCS(=O)(=O)C1 (configuration not stated)
  inhibition: inactive: 2.1%
FC(F)(F)c1ccc(-c2csc(-c3ccno3)n2)cc1
  inhibition: inconclusive: -30.6%
CCCOc1ccc(C(=O)NC(=S)NNC(=O)c2c(-c3ccccc3)noc2C)cc1
  inhibition: inconclusive: 13.1%

Following part

Compound | inhibition
O=C(O)CCn1c(Cc2ccccc2)nc2ccccc21 | inconclusive: 28.6%
O=C(NC1CCCc2ccccc21)C1CCN(S(=O)(=O)c2cccc3nonc23)CC1 (configuration not stated) | inconclusive: -14%
CC1(C)Cc2c(C#N)c(SCC(=O)c3ccccc3)nc(N3CCOCC3)c2CS1 | active: 36.8%
CC(C)(C)c1ccc(C(=O)Nc2ccc(CN3CCS(=O)(=O)CC3)cc2)cc1 | inconclusive: -72%
CC(C)CN(C(=O)c1ccc(-n2cncn2)c([N+](=O)[O-])c1)C1CCS(=O)(=O)C1 (configuration not stated) | inconclusive: 5.1%
Cc1sc2c(c1C)C(=O)/C(=C\Nc1ccncc1)S(=O)(=O)N2C | inconclusive: -23.2%
CCOC(=O)C(=CNc1cc(C)ccc1[N+](=O)[O-])C(=O)OCC | inconclusive: -23.2%
O=C(CN1C(=O)NC2(CCCC2)C1=O)OCCOc1ccc(F)cc1 | inconclusive: -3.9%
CC(C)(C)C(=O)CNS(=O)(=O)c1ccc(S(=O)(=O)NC2CC2)cc1 | inactive: 34.3%
COc1ccc(NC(=O)c2cc(S(=O)(=O)N3CCCC3)ccc2C)cn1 | active: 73.3%
COc1ccc(Cl)cc1NC(=O)NCC1CCN(C(=O)OC(C)(C)C)CC1 | inconclusive: 114%
CS(=O)(=O)NCCSCc1ccccc1 | inactive: -6.3%
O=C(Nc1cc(Cl)cc(Cl)c1)Nc1cnccn1 | inactive: 4.7%
COc1ccc(Cn2c(C3CC3)nc3ccc(NC(C)=O)cc3c2=O)cc1 | inconclusive: 23.4%
CC(=O)N1N=C(c2ccc3ccccc3c2)OC12CCCC2 | inconclusive: -110%
COc1cccc(CC2(CO)CCCN(Cc3ccccc3Cl)C2)c1 (configuration not stated) | inconclusive: 54.9%
COc1ccc(C(=O)C2CCCN(CCO)C2)c(C)c1 (configuration not stated) | inconclusive: -11.5%
Cc1ccc(C)c(/C(O)=C2\C(=O)C(=O)N(CCCN3CCOCC3)C2c2cccnc2)c1 (configuration not stated) | inactive: 2.3%
CC1CC(Nc2ccccc2)c2ccccc2N1C(=O)c1ccco1 (configuration not stated) | inconclusive: -149%
CC1CN(c2ccc([N+](=O)[O-])c(N3CCCCC3)c2)CCN1 (configuration not stated) | inconclusive: -5.5%
COCc1cc(=O)n2[nH]c(C(C)(C)C)cc2n1 | inconclusive: -42.9%
Cn1nccc1C(=O)N1CCN(S(=O)(=O)c2ccc(Br)s2)CC1 | inactive: 1.6%
O=C(CSc1nc(=O)n2ccccc2n1)NCc1ccccc1Cl | inactive: -17%

Compound | inhibition
Cc1nc2c(=O)n(-c3ccc(F)cc3F)nc(C)c2s1 | inconclusive: -9.6%
Nc1cccc(C(=O)Nc2cccc3ncccc23)c1 | inconclusive: -15%
Cc1ccnc(N2CCCC(C(=O)Nc3nnc(C)s3)C2)n1 (configuration not stated) | inactive: -3.3%
O=C(NC1=NCCS1)c1ccc(-c2ccc(Cl)cc2)o1 | inactive: 4%
COc1ccc(CN2C(=O)CSC2c2ccccn2)cc1 (configuration not stated) | inconclusive: 5.9%
CC(=O)Oc1ccc2nc(/C=C/c3ccc(C=O)cc3)oc(=O)c2c1 | inconclusive: -7.1%
O=C(Nc1ccccc1)c1ccccc1OS(=O)(=O)c1ccccc1 | inconclusive: 7.5%
CCCCCOc1cccc(C2C(C(=O)c3cccs3)=C(O)C(=O)N2CCN2CCOCC2)c1 (configuration not stated) | inconclusive: 67.6%
CC(C)(C)NC(=O)c1cccc(NC(=O)c2ccc3c(c2)C(=O)N(C(C)(C)C)C3=O)c1 | inconclusive: 26.2%
CCOC(=O)C1(Cc2ccccc2)CCCN(C(=O)C=C(C)C)C1 (configuration not stated) | inconclusive: 14.3%
CC(=O)Oc1ccc(C(=O)Nc2cccnc2)cc1 | inconclusive: -6.9%
COc1ccc(C2c3ccc4ccccc4c3Oc3ncn(CCCN(C)C)c(=N)c32)cc1 (configuration not stated) | inactive: -23.6%
CCCn1nc(NC(=O)C2CCCO2)c2cc3cccc(C)c3nc21 (configuration not stated) | inactive: -13.1%
COc1cccc(NC(=O)c2ccc3c(O)c(S(=O)(=O)c4ccccc4)c(=O)[nH]c3c2)c1 | inactive: 1.6%
CC(C)(C)c1ccc(-c2cc(-c3ccccc3O)[nH]n2)cc1 | inconclusive: -6.1%
CCN1CCN(c2nc3c(c(=O)[nH]c(=O)n3C)n2Cc2ccccc2)CC1 | inconclusive: 3%
CC1S/C(=N/N=C/c2cccc([N+](=O)[O-])c2)NC1=O (configuration not stated) | inconclusive: 28%
CSc1nc(N2CCN(C)CC2)c2c(c1C#N)CC(C)(C)OC2 | inconclusive: 114%
COc1ccccc1Nc1nc(-c2cccnc2)cs1 | inconclusive: -1.1%
COc1ccc(-c2c(C)nn3c(C)cc(C)nc23)cc1 | inconclusive: 0.3%
CC(OC(=O)C1CC1)C(=O)Nc1ncc(Cl)cc1Cl (configuration not stated) | inactive: -9.2%
CC(=O)Nc1nc(C)c(Oc2ccc(Cl)cc2)c(=O)[nH]1 | inconclusive: -91.2%
CCc1c(C)sc(NC(=O)Cc2ccccc2OC)c1C(=O)N1CCOCC1 | inactive: 0%
